Experimental data: PubChem BioAssay AID248 (DTP/NCI, 2004)
The list does not hold the whole screen: it gathers tests that were run many times, whatever their T/C, doses with no T/C, and many T/C values between a quarter and a half above the control. Further doses and runs are listed elsewhere. T/C gives the treated animals as a percentage of the vehicle group. Some entries give survivors of the animals treated and no T/C: the source holds a T/C of zero for them, seemingly a mark for toxic or unscored doses. Some survivor counts are full or nearly so, which does not show that the dose was tolerated: the source hardly ever lists a survival T/C far under the control, and the zero likely stands for such cases as well. Survivors were counted at the toxicity check, usually on the fifth day, unless a day is given; later deaths do not show. Schedules are NCI's codes, read here as Q, the interval in days (D) or hours (H), X, the number of doses. Some schedules carry Z or #; the key to these is not given. For survival time, this PubChem deposit counts one and a half times the control or more as active, and values a quarter to a half above the control carry no call in these data; other NCI protocols may use other cut-offs. Some T/C values carry the count of animals alive at the toxicity check (mostly the fifth day); where none is given, no animal had died by that day.

System: L1210 leukemia ip in BDF1 mice, survival T/C
Test: NCI In Vivo Anticancer Drug Screen. Data for tumor model L1210 Leukemia (intraperitoneal) in B6D2F1 (BDF1) mice
Settings: higher T/C = longer survival
[1] = T/C endpoint: mean survival time, dose: 100.0 mg/kg/injection, schedule: Q01DX009 (ip), vehicle: saline with Tween-80
[2] = T/C endpoint: mean survival time, dose: 200.0 mg/kg/injection, schedule: Q01DX009 (ip), vehicle: saline with Tween-80
[3] = T/C endpoint: mean survival time, dose: 400.0 mg/kg/injection, schedule: Q01DX009 (ip), vehicle: saline with Tween-80
[4] = T/C endpoint: mean survival time, dose: 200.0 mg/kg/injection, schedule: Q01DX009 (ip), vehicle: saline
[5] = T/C endpoint: mean survival time, dose: 400.0 mg/kg/injection, schedule: Q01DX009 (ip), vehicle: saline
[6] = T/C endpoint: mean survival time, dose: 400.0 mg/kg/injection, schedule: Q04DX003 (ip), vehicle: Klucel (hydroxypropylcellulose) (HPC)
[7] = T/C endpoint: mean survival time, dose: 200.0 mg/kg/injection, schedule: Q01DX009 (ip), vehicle: Klucel (hydroxypropylcellulose) (HPC)
[8] = T/C endpoint: mean survival time, dose: 400.0 mg/kg/injection, schedule: Q04DX002 (ip), vehicle: saline with Tween-80
[9] = T/C endpoint: mean survival time, dose: 100.0 mg/kg/injection, schedule: Q01DX009 (ip), vehicle: saline
[10] = T/C endpoint: mean survival time, dose: 50.0 mg/kg/injection, schedule: Q04DX003 (ip), vehicle: saline
[11] = T/C endpoint: mean survival time, dose: 200.0 mg/kg/injection, schedule: Q04DX003 (ip), vehicle: saline

O=C1c2ccccc2C(=O)N1CCC[P+](c1ccccc1)(c1ccccc1)c1ccccc1
survivor count (T/C endpoint: mean survival time, dose: 50.0 mg/kg/injection, schedule: Q01DX009 (ip), vehicle: saline with Tween-80): 6 of 6
survivor count [1]: 3 of 6
survivor count [2]: 0 of 6
survivor count [3]: 0 of 6

CNCC(=O)NC(CO)C(=O)NC1C(C(N)=O)OC(n2ccc(N)nc2=O)C(O)C1O (stereo not given)
survivor count (T/C endpoint: median survival time, dose: 6.0 mg/kg/injection, schedule: Q04DX003 (ip), vehicle: saline): 3 of 8
survivor count (T/C endpoint: median survival time, dose: 12.0 mg/kg/injection, schedule: Q04DX003 (ip), vehicle: saline): 2 of 8

C=CCONC(=O)Oc1ccccc1
survivor count (T/C endpoint: mean survival time, dose: 300.0 mg/kg/injection, schedule: Q01DX001 (ip), vehicle: other): 0 of 6

CC(=O)OCC1OC(N2C(=O)/C(=C/c3c(Cl)cccc3Cl)SC2=S)C(OC(C)=O)C(OC(C)=O)C1OC(C)=O (stereo not given)
survivor count (T/C endpoint: mean survival time, dose: 400.0 mg/kg/injection, schedule: Q01DX005 (ip), vehicle: other): 1 of 6

CCc1c(Nc2ccccc2Cl)nc(N)[nH]c1=O
survivor count (T/C endpoint: mean survival time, dose: 200.0 mg/kg/injection, schedule: Q01DX Z (ip), vehicle: methylcellulose (MC)): 6 of 6

C[N+](C)(C)Cc1ccco1
survivor count [4]: 4 of 6
survivor count [5]: 0 of 6

CCCCN(C)N=Nc1ccc([N+](=O)[O-])cc1C(N)=O
T/C [1]: 130 % of control
T/C (T/C endpoint: mean survival time, dose: 176.0 mg/kg/injection, schedule: Q01DX009 (ip), vehicle: saline with Tween-80): 141 % of control

CSC(c1ccccc1)=[N+]1CCOCC1
survivor count [6]: 6 of 6

CCOC(=O)c1cccc(N(CCOS(C)(=O)=O)CCOS(C)(=O)=O)c1
survivor count (T/C endpoint: mean survival time, dose: 128.0 mg/kg/injection, schedule: Q01DX015 (ip), vehicle: saline): 5 of 6

O=C(O)c1ccc(OC(F)(F)C(F)Cl)cc1 (stereo not given)
survivor count [7]: 2 of 6

CC(=O)N1CCc2cc(N)ccc21
survivor count [1]: 2 of 6
survivor count [3]: 2 of 6

S=c1[nH]c2c(Cl)c(Cl)c(Cl)c(Cl)c2[nH]1
survivor count [3]: 1 of 6

[Cl][Pd][Cl].[NH-]C1CCCC1.[NH-]C1CCCC1
survivor count (T/C endpoint: mean survival time, dose: 100.0 mg/kg/injection, schedule: Q04DX002 (ip), vehicle: saline with Tween-80): 0 of 3
survivor count (T/C endpoint: mean survival time, dose: 200.0 mg/kg/injection, schedule: Q04DX002 (ip), vehicle: saline with Tween-80): 1 of 3
survivor count [8]: 0 of 3

CCCCCCC(C)OC(=O)CCCc1ccc(N(CCCl)CCCl)cc1 (stereo not given)
T/C [9]: 135 % of control
survivor count [5]: 6 of 6

CC(C)C(CCN1CCCCC1)(CN=C(N)N)c1cccc2ccccc12 (stereo not given)
survivor count [9]: 0 of 6
survivor count [4]: 0 of 6
survivor count [5]: 0 of 6

NNc1c(F)c(F)c(C(F)(F)F)c(NN)c1F
survivor count (T/C endpoint: mean survival time, dose: 25.6 mg/kg/injection, schedule: Q04DX002 (ip), vehicle: saline with Tween-80): 1 of 3
survivor count (T/C endpoint: mean survival time, dose: 64.0 mg/kg/injection, schedule: Q04DX002 (ip), vehicle: saline with Tween-80): 2 of 3
survivor count (T/C endpoint: mean survival time, dose: 160.0 mg/kg/injection, schedule: Q04DX002 (ip), vehicle: saline with Tween-80): 0 of 3
survivor count [8]: 0 of 3

Nc1ncnc2c1ncn2C1OC(CO)C(N)C1O (stereo not given)
T/C (T/C endpoint: mean survival time, dose: 4.5 mg/kg/injection, schedule: Q01DX Z (ip), vehicle: carboxymethylcellulose (CMC)): 133 % of control [4 of 6 alive]

CCOC(=O)C1CCC(NC(=O)N(CCCl)N=O)CC1 (stereo not given)
T/C (T/C endpoint: mean survival time, dose: 6.0 mg/kg/injection, schedule: Q01DX001 (ip), vehicle: other): 129 % of control
T/C (T/C endpoint: mean survival time, dose: 67.0 mg/kg/injection, schedule: Q01DX001 (ip), vehicle: other): 146 % of control [8 of 10 alive]
survivor count (T/C endpoint: mean survival time, dose: 100.0 mg/kg/injection, schedule: Q01DX001 (ip), vehicle: other): 8 of 10
survivor count (T/C endpoint: mean survival time, dose: 125.0 mg/kg/injection, schedule: Q01DX001 (ip), vehicle: other): 5 of 6
survivor count (T/C endpoint: mean survival time, dose: 250.0 mg/kg/injection, schedule: Q01DX001 (ip), vehicle: other): 2 of 6
survivor count (T/C endpoint: mean survival time, dose: 375.0 mg/kg/injection, schedule: Q01DX001 (ip), vehicle: other): 0 of 6
survivor count (T/C endpoint: mean survival time, dose: 500.0 mg/kg/injection, schedule: Q01DX001 (ip), vehicle: other): 0 of 6

NC1CC[N-]CC1.NC1CC[N-]CC1.[Cl][Pt+2][Cl]
survivor count [5]: 5 of 6

CC(C)(C)C1CCC(NN)CC1 (stereo not given)
survivor count (T/C endpoint: mean survival time, dose: 12.5 mg/kg/injection, schedule: Q01DX009 (ip), vehicle: saline): 4 of 6
survivor count (T/C endpoint: mean survival time, dose: 25.0 mg/kg/injection, schedule: Q01DX009 (ip), vehicle: saline): 0 of 6
survivor count [10]: 6 of 6
survivor count (T/C endpoint: mean survival time, dose: 100.0 mg/kg/injection, schedule: Q01DX001 (ip), vehicle: saline): 0 of 6
survivor count (T/C endpoint: mean survival time, dose: 200.0 mg/kg/injection, schedule: Q01DX001 (ip), vehicle: saline): 1 of 6

O=C1c2ccccc2C(=O)c2c(O)c(N3CCOCC3)cc(O)c21
survivor count (T/C endpoint: mean survival time, dose: 25.0 mg/kg/injection, schedule: Q04DX003 (ip), vehicle: saline): 6 of 6
survivor count [10]: 6 of 6
survivor count (T/C endpoint: mean survival time, dose: 100.0 mg/kg/injection, schedule: Q04DX003 (ip), vehicle: saline): 6 of 6
survivor count [11]: 6 of 6

C=C(Br)CNC(N)=S
survivor count [6]: 4 of 6

Cc1ncc(CO)c2c1OC1=CCCCC1=C2
survivor count [8]: 0 of 3

O=C=Nc1ccc(C(=O)CCl)cc1
survivor count (T/C endpoint: mean survival time, dose: 320.0 mg/kg/injection, schedule: Q01DX009 (ip), vehicle: saline with Tween-80): 3 of 6

COC(=O)c1cn[nH]c1/N=N/N(C)C
T/C (T/C endpoint: mean survival time, dose: 38.0 mg/kg/injection, schedule: Q01DX009 (ip), vehicle: other): 136 % of control
T/C (T/C endpoint: mean survival time, dose: 58.0 mg/kg/injection, schedule: Q01DX009 (ip), vehicle: saline): 126 % of control
T/C (T/C endpoint: mean survival time, dose: 88.0 mg/kg/injection, schedule: Q01DX009 (ip), vehicle: saline): 145 % of control

O=[N+]([O-])c1c(Cl)ccc2c(Cl)ccnc12
survivor count (T/C endpoint: mean survival time, dose: 400.0 mg/kg/injection, schedule: Q04DX003 (ip), vehicle: gum acacia): 2 of 6

O=C(CCN1CC1)OC1CCCCCC1
survivor count (T/C endpoint: mean survival time, dose: 50.0 mg/kg/injection, schedule: Q01DX009 (ip), vehicle: Klucel (hydroxypropylcellulose) (HPC)): 6 of 6
survivor count (T/C endpoint: mean survival time, dose: 100.0 mg/kg/injection, schedule: Q01DX009 (ip), vehicle: Klucel (hydroxypropylcellulose) (HPC)): 3 of 6
survivor count [7]: 0 of 6
survivor count [6]: 4 of 6

COc1cccc(CC2=NCCc3cc(OC)c(OC)cc32)c1
survivor count [4]: 0 of 6
survivor count [11]: 0 of 6
survivor count (T/C endpoint: mean survival time, dose: 400.0 mg/kg/injection, schedule: Q04DX003 (ip), vehicle: saline): 0 of 6

CCc1nc2ccccc2c(=O)n1-c1ccc(Cl)cc1
survivor count [2]: 0 of 3

COC(=O)C1C=C2c3cccc4[nH]cc(c34)CC2N(C)C1 (stereo not given)
survivor count [4]: 3 of 6
survivor count [5]: 2 of 6

Cc1ncc(CO)c(C2NOCc3nscc32)c1O (stereo not given)
survivor count (T/C endpoint: mean survival time, dose: 6.25 mg/kg/injection, schedule: Q01DX009 (ip), vehicle: Klucel (hydroxypropylcellulose) (HPC)): 6 of 6
survivor count (T/C endpoint: mean survival time, dose: 25.0 mg/kg/injection, schedule: Q04DX003 (ip), vehicle: Klucel (hydroxypropylcellulose) (HPC)): 6 of 6
survivor count (T/C endpoint: mean survival time, dose: 50.0 mg/kg/injection, schedule: Q04DX003 (ip), vehicle: Klucel (hydroxypropylcellulose) (HPC)): 5 of 6
survivor count (T/C endpoint: mean survival time, dose: 100.0 mg/kg/injection, schedule: Q01DX001 (ip), vehicle: Klucel (hydroxypropylcellulose) (HPC)): 2 of 6
survivor count (T/C endpoint: mean survival time, dose: 200.0 mg/kg/injection, schedule: Q01DX001 (ip), vehicle: Klucel (hydroxypropylcellulose) (HPC)): 0 of 6
survivor count (T/C endpoint: mean survival time, dose: 400.0 mg/kg/injection, schedule: Q01DX001 (ip), vehicle: Klucel (hydroxypropylcellulose) (HPC)): 0 of 6

CCCCCC(C)NCC(C)O (stereo not given)
survivor count (T/C endpoint: mean survival time, dose: 150.0 mg/kg/injection, schedule: Q01DX001 (ip), vehicle: acid diluted with saline): 2 of 6
survivor count (T/C endpoint: mean survival time, dose: 300.0 mg/kg/injection, schedule: Q01DX001 (ip), vehicle: acid diluted with saline): 0 of 6

CSc1ccc([N+](=O)[O-])cc1
survivor count [6]: 1 of 6
